{
  "source": "patent US6103697",
  "about": "(dated 2000)",
  "test": "general procedure: peptide synthesis; crosslinked polystyrene grafted with polyethyleneglycol chains, p-hydroxymethylphenoxyacetic acid linker, Fmoc-Ile prelo; HOAt esters prepared in situ with 1,3-diisopropylcarbodiimide",
  "conditions": "whole synthesis",
  "data": [
    {"substance": "H-Gly-Pro-Cys-Ile-OH", "values": [
      {"measurement": "isolated mass", "value": 8.5, "unit": "mg"},
      {"measurement": "crude mass", "setting": "scale 81 μmol", "value": 21, "unit": "mg"},
      {"measurement": "isolated yield", "setting": "scale of the general procedure 81 μmol", "value": 55, "unit": "%"}
    ]}
  ]
}
